# Data: article PMC2551611
# Amino acid sequences for entries named in this document (tags omitted).
# UniProt Q2A1M0: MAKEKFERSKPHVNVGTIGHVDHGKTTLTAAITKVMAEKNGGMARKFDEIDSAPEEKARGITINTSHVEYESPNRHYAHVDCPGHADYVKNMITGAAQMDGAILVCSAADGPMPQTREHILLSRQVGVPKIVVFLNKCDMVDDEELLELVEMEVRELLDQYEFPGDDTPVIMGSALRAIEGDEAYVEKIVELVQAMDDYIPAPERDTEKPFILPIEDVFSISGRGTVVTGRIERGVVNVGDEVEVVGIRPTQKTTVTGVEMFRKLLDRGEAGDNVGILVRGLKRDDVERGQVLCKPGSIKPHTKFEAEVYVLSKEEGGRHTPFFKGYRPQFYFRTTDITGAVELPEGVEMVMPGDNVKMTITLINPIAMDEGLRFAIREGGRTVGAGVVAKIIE
# Results are given in words; binding and its absence hold for the method and conditions named. Binding seen in cells or lysates may run through a third protein. Some results given as binding are weak or reduced against the parent protein; the word gives no strength.
# Biological target: biotin-labeled p63 peptide (last 63 amino acid residues of human nucleolin, RGG carboxy-terminal domain) (human)
# Assay: pull-down; only the target purified
substance,measurement,value
elongation factor Tu (EF-Tu) present in Francisella tularensis LVS membrane proteins (from UniProt Q2A1M0 1-394),binding,binds
